Data published in PMC10450177.
Construct, isoform or probe ends are uncertain for at least one entry. For some assays here: Weaker means in comparison with the reference protein, sequence or condition of that experiment.

Legend:
[1] = tested on: CasDinG arch domain deletion; assay: fluorescence anisotropy; settings: 5 mM Mg2+, binding impaired vs WT; 100 mM Tris pH 8.0, 1 mM TCEP, 5 mM MgCl2, +/- 1 mM AMP-PNP, 10 nM FAM-ssDNA, CasDinG 0-2.5 uM, room temperature; recombinant protein; protein details: StrepII; single-stranded DNA
[2] = tested on: CasDinG N-terminal domain deletion; assay: fluorescence anisotropy; settings: 5 mM Mg2+, binding not impaired vs WT; 100 mM Tris pH 8.0, 1 mM TCEP, 5 mM MgCl2, +/- 1 mM AMP-PNP, 10 nM FAM-ssDNA, CasDinG 0-2.5 uM, room temperature; recombinant protein; protein details: StrepII; single-stranded DNA

Sequence: TCGTCACCAGTACAAACTACAACGCCTGTAGCATTCCACA [40 nt ssDNA (oligo 7)]
- binding result [1]: binds more weakly
- binding result [2]: binds
